These are yes or no findings as the source states them, for the method shown. Some entries that bind do so weakly or less than the wild type.

This experiment addresses T1, Pch1 (S. pombe) (UniProt O74627).
T1 sequence: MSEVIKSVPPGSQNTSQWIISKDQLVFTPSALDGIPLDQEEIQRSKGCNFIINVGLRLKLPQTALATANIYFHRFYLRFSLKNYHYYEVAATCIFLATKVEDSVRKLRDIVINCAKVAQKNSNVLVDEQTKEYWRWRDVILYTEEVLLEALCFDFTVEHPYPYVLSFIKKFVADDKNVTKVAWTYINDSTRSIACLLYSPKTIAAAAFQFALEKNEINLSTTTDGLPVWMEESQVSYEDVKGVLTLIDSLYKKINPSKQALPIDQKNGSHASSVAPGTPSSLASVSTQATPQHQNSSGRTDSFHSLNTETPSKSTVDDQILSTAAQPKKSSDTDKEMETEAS
The experiment is described as follows: co-purification.

B1: Cdk9 (enzyme, UniProt Q96WV9 1-591)
chain: MKRSSSVSVEDEKSARRKLDVVPKLHFVGCSHLTDYHLMEKLGEGTFGEVYKSQRRKDGKVYALKRILMHTEKEGFPITAIREIKILKSIKHENIIPLSDMTVVRADKKHRRRGSIYMVTPYMDHDLSGLLENPSVKFTEPQIKCYMKQLFAGTKYLHDQLILHRDLKAANLLIDNHGILKIADFGLARVITEESYANKNPGLPPPNRREYTGCVVTRWYRSPELLLGERRYTTAIDMWSVGCIMAEMYKGRPILQGSSDLDQLDKIFRLCGSPTQATMPNWEKLPGCEGVRSFPSHPRTLETAFFTFGKEMTSLCGAILTLNPDERLSASMALEHEYFTTPPYPANPSELQSYSASHEYDKRRKREQRDANSHAFEQTANGKRQFRFMTRGPSDPWYGIRRPNYNSQPQYQRGSYNREGGNMDRSRNVNYQPKRQQNFKPLTSDLPQKNSEFSETNAMNQTSNHSHADGQRYYRPEQDRSQRLRNPSDYGRQGRQSSQSQQPAWNVSSRYQNNSKVQTTSRASENADTNKTQHNIKYIDSYVPEYSIARQSANQKTNEQHPSSTSLHQQSTSDLKSPSFHENSNVDDTPK
As to B1, the binding entry is given as “binds”.
